# PubChem BioAssay AID686938 | Drosophila RNAi Screening Center | 2013
# Test: 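Fly genes required for calcium entry once internal stores are emptied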 (primary screen)
# System: Drosophila S2R+ cells
# Reagents: long dsRNA against Drosophila genes, about 0.25 µg dsRNA per well, roughly 10,000 cells
# Duration: 5 days of knock-down before the calcium assay
# Treatment: thapsigargin (SERCA pump blocker) to empty calcium stores; entry signal taken 4 min after adding it
# Read-out: 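Per-well fluo-4 fluorescence in two replicates, unnormalised, measured in resting cells and 4 min after store depletion by the SERCA blocker thapsigargin; ratio of the two present in few wells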
# Direction: calcium entry signal: higher = stronger calcium signal after store depletion; entry to resting ratio: higher = more calcium entry relative to resting level; resting calcium signal: higher = higher resting calcium signal
# Call rule: 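Called when the plate z-score of the entry-to-rest ratio, mean of duplicates, falls below −3; wells with low overall dye signal (Fmax z below −2) or more than five off-targets excluded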
# Calls: active = strongly reduced calcium entry; inactive = no strong reduction
# The screen tested about 23,000 reagents; this is a random part of those that have a named target and a result. Over the whole deposit, 75 (0.33%) are marked active. 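Raw plate signals without normalisation; calls rest on plate z-scores that were not deposited; ratio present for only 364 wells.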 A plus sign joins genes that one reagent is predicted to hit. No sequences are given here. Not given: the dose of the treatment.
Gene,DRSC id,"calcium entry signal, replicate 1 (fluorescence units)","calcium entry signal, replicate 2 (fluorescence units)",entry to resting ratio,"resting calcium signal, replicate 1 (fluorescence units)","resting calcium signal, replicate 2 (fluorescence units)",call
CG5681,DRSC02876,4.48e7,3.59e7,,2.07e7,1.81e7,inactive
Ac78C,DRSC11467,3.34e7,3.02e7,,1.75e7,1.50e7,inactive
Ac78C,DRSC11602,3.34e7,4.92e7,,1.62e7,2.12e7,inactive
Ac78C,DRSC11619,2.77e7,4.51e7,,1.38e7,1.94e7,inactive
CG7289,DRSC00697,4.40e7,,,2.56e7,,inactive
CG8531,DRSC07209,3.59e7,4.39e7,,1.58e7,1.97e7,inactive
CG3588,DRSC18473,5.87e7,6.11e7,2.1,2.81e7,2.53e7,inactive
can,DRSC10664,3.90e7,3.62e7,,2.04e7,1.80e7,inactive
Cyp6a9,DRSC07385,2.87e7,4.04e7,,1.45e7,1.60e7,inactive
jus,DRSC14861,2.36e7,3.27e7,,1.38e7,1.47e7,inactive
jus,DRSC14862,2.45e7,3.19e7,,1.29e7,1.52e7,inactive
jus,DRSC23018,5.73e7,3.61e7,,2.87e7,1.47e7,inactive
CG13299,DRSC09973,2.98e7,4.52e7,,1.40e7,2.02e7,inactive
Lsd-2,DRSC20143,3.22e7,3.63e7,,1.50e7,1.86e7,inactive
ImpL2,DRSC08666,4.71e7,3.84e7,,3.10e7,1.50e7,inactive
fabp + sea,DRSC16114,2.27e7,2.97e7,,1.09e7,1.43e7,inactive
fabp + sea,DRSC16115,2.30e7,2.90e7,,9.79e6,1.36e7,inactive
Paris,DRSC00451,3.52e7,,,1.63e7,,inactive
Pfk,DRSC07506,3.44e7,3.96e7,,2.03e7,2.10e7,inactive
PIG-X,DRSC22721,3.08e7,2.86e7,,1.77e7,1.30e7,inactive
HLH3B,DRSC18669,3.39e7,4.40e7,1.8,1.90e7,1.84e7,inactive
Pgm1,DRSC10490,3.75e7,4.34e7,,1.83e7,2.91e7,inactive
CSN3,DRSC11859,2.91e7,3.26e7,,1.65e7,1.81e7,inactive
CG34174,DRSC00101,1.86e7,2.35e7,,1.05e7,1.16e7,inactive

Just “calcium entry signal, replicate 2 (fluorescence units)”, for 2 of the entries above:
CG13299 [DRSC09973]	4.52e7
Lsd-2 [DRSC20143]	3.63e7
